Source: PubChem BioAssay AID2417 (National Center for Advancing Translational Sciences (NCATS), 2010)
Among all 140,000 compounds or so, about 4,300 (3.1%) were called active. The shares of active, inactive and inconclusive entries below differ from those in the screen.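 Rule for the calls: active = readout at or below -70, meaning at least 70% loss of cells showing the perinucleolar compartment, a nuclear body marking cancer cells; inconclusive = readout between -30 and a set limit; inactive = the rest.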

Assay: High Content Assay for Compounds that inhibit the Assembly of the Perinucleolar Compartment;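 note: plate controls were DMSO wells for no effect and camptothecin positive control wells for full effect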
Details: PC3M PTB-GFP, PNC prevalence imaging, 16 h; at 10 µM; stronger effect = lower value
Summary of the method: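 Read-out is percentage of cells bearing a perinucleolar compartment, from automated 20x imaging of fixed, Hoechst-stained PC3M PTB-GFP cells. Cells were seeded 4 h, then exposed 16 h to compound (23 nl of library stock) in duplicate plates.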

SMILES | activity change (PNC), negative = inhibition
Cc1cc(NC(=O)COc2ccc(Cl)cc2Cl)n(-c2ccccc2)n1 | inconclusive: -58.7%
COc1ccc(/C=N\NC(=O)c2nn(C)cc2Cl)cc1CN1CCOCC1 | inconclusive: -35%
CC(Oc1ccc(Cl)cc1Cl)C(=O)Nc1ccncc1 (stereo not drawn) | inconclusive: -35.9%
CC1CC(C)CN(C(=O)COC(=O)CCc2nc3ccccc3c(=O)[nH]2)C1 (stereo not drawn) | inactive: -4.39%
CC(=O)NC(Cc1ccccc1)C(=O)OCC(=O)c1ccc(F)cc1 (stereo not drawn) | inactive: 36.2%
CC(C(=O)Nc1sc2c(c1C(=O)NCC1CCCO1)CCC2)N1C(=O)c2ccccc2C1=O (stereo not drawn) | inconclusive: -60.4%
CCOc1ccc(N=c2scc(-c3ccc(OC)cc3)n2CCO)cc1 | inconclusive: -30%
COc1ccc(CCNC(=O)Cn2c(=O)cnc3ccccc32)cc1 | inconclusive: -33.3%
O=C(Cc1ccc(Br)cc1)c1ccc(O)cc1O | inactive: -17.7%
COc1ccc(OCCNC(=O)c2cccc(Oc3ccc(C(F)(F)F)cc3[N+](=O)[O-])c2)cc1 | inconclusive: -30%
O=C(CSc1nnc(-c2ccccc2)o1)c1nnc(-c2ccccc2)o1 | inconclusive: -51%
O=C(CSc1nnc(Cn2c(=O)sc3ccccc32)n1CCc1ccccc1)N1CCOCC1 | inconclusive: -51.5%
O=C(O)CCC(=O)N1CCc2cc(S(=O)(=O)N3CCC(Cc4ccccc4)CC3)ccc21 | inactive: 11%
Cc1ccc(S(=O)(=O)N2CCC(=O)N(CCOCc3ccc(F)cc3)CC2)cc1 | inactive: 40.9%
CC(=O)Nc1ccc(C(=O)CSc2nnc(Cc3ccccc3)o2)cc1 | inconclusive: -60.8%
Cc1cc(C)nc(SCc2ccc(C(=O)N/N=C3\CC(C)CC(C)(C)C3)cc2)n1 (stereo not drawn) | inactive: -4.42%
Cc1ccc(C(=O)N(c2c(C)n(C)n(-c3ccccc3)c2=O)C(C)C)cc1 | inactive: 27.6%
CNS(=O)(=O)c1ccc(NC(=O)C(CCSC)NC(N)=O)cc1 (stereo not drawn) | inconclusive: -64.7%
CCC1(CC)C(=O)N(C)C(=O)NC1=Nc1ccccc1 | inconclusive: -30.1%
Cc1nnc(SCC(=O)N2c3ccccc3C(C)(c3ccccc3)CC2(C)C)s1 (stereo not drawn) | inconclusive: -39.2%
Cc1cc(=O)[nH]c(SCC2(O)C3CC4CC(C3)CC2C4)n1 (stereo not drawn) | inconclusive: -61.5%
CCCOc1ccc(C2=NNC(=O)CC2)cc1 | inactive: 18.1%

SMILES | activity change (PNC), negative = inhibition
CCCn1nc(C(=O)Nc2ccc(S(=O)(=O)Nc3nccs3)cc2)c2ccccc2c1=O | inactive: 3.34%
O=C(C(Cl)Cl)N1c2ccccc2OCC1c1ccccc1 (stereo not drawn) | inconclusive: -35.6%
CCOC(=O)C1=NN(c2ccc(C)cc2)CC1C(=O)OC (stereo not drawn) | inactive: -7.96%
Cc1c(Cl)c([N+](=O)[O-])nn1CCCC(=O)Nc1cc(Oc2ccccc2)cc([N+](=O)[O-])c1 | inconclusive: -37.1%
CCC(Sc1nc2ccccc2c2nc3ccccc3n12)C(=O)NCc1ccco1 (stereo not drawn) | inconclusive: -35.8%
O=C(CNCC1CCCO1)Nc1ccccc1N1CCOCC1 (stereo not drawn) | active: -85.5%
O=C1CCc2cc(S(=O)(=O)N3CCCC3C(=O)N3CCN(c4ccccc4)CC3)ccc2N1 (stereo not drawn) | inconclusive: -45.8%
CC1=C(C(=O)OCc2ccc3c(c2)OCO3)C(c2ccccc2)NC(=O)N1 (stereo not drawn) | inactive: 6.19%
O=C(c1ccccc1Cl)N1CCc2ccccc2C1 | inactive: 30.4%
O=C(Nc1ccccc1)O/N=C(\c1ccccc1)c1ccccn1 | inconclusive: -30.1%
CCOC(=O)c1c(/N=C/c2ccc(O)cc2O)sc2c1CCC2 | inconclusive: -34.1%
O=C(CSc1nnc(SCc2ccccc2)s1)N/N=C/C=C/c1ccccc1[N+](=O)[O-] | inconclusive: -40.8%
Cc1cccc(CSC(Nc2ccc(F)cc2)=C(C#N)C#N)c1 | inconclusive: -44.2%
Cn1c(SCC(=O)N=Nc2c(O)[nH]c3ccccc23)nc2ccccc21 | inactive: 10.2%
COC(=O)C1=C(C)NC(=O)/C1=C\c1cc(C)n(-c2cccc(C)c2)c1C | inactive: -20.3%
CC(=O)Oc1ccc(N2C(=O)C3C4C=CC(CO)(O4)C3C2=O)cc1 (stereo not drawn) | inactive: -17.9%
CCOC(=O)N1CCN(C(=O)c2ccc3nc4ccsc4c(=O)n3c2)CC1 | inconclusive: -35.9%
COC(=O)COc1ccc(S(=O)(=O)NCCC2=CCCCC2)cc1 | inactive: 9.99%
Cc1cc(C(F)(F)F)nc(SCc2ccc(C(=O)O)o2)n1 | inconclusive: -64.4%
Nc1nc(CSc2nnnn2-c2ccccc2)nc(N2CCCc3ccccc32)n1 | inconclusive: -46.8%
CCOC(=O)c1ccccc1NC(=O)Cn1cnc2c1c(=O)n(C)c(=O)n2C | inconclusive: -49%
CC(=O)C1=C(C)OC(N)=C(C#N)C1c1cc2cccc(C)c2nc1Cl (stereo not drawn) | inactive: 63.5%

Some of these compounds in order of number of heavy atoms, falling:
SMILES | activity change (PNC), negative = inhibition
Cc1c(Cl)c([N+](=O)[O-])nn1CCCC(=O)Nc1cc(Oc2ccccc2)cc([N+](=O)[O-])c1 | inconclusive: -37.1%
CC(=O)Nc1ccc(C(=O)CSc2nnc(Cc3ccccc3)o2)cc1 | inconclusive: -60.8%
CCCOc1ccc(C2=NNC(=O)CC2)cc1 | inactive: 18.1%

Next part:

SMILES | activity change (PNC), negative = inhibition
COCCNC(=O)c1ccccc1NC(=O)COc1ccccc1 | inconclusive: -50.6%
COC(=O)c1c(NC(=O)C2SC(=NC3CCCCC3)C(C(N)=O)=C2N)sc2c1CCCC2 (stereo not drawn) | inconclusive: -69.2%
CCC(Sc1nc2c(cnn2-c2ccc(Cl)cc2)c(=O)[nH]1)C(=O)OC (stereo not drawn) | inconclusive: -32.6%
O=C(CC(=O)Nc1ccc(Cl)c(Cl)c1)N/N=C/c1ccc(O)cc1 | inconclusive: -63.3%
CC(C)(C)c1ccc2c(c1)C(=O)c1ccccc1C2=O | inconclusive: -32.1%
CCOc1ccc(/C=C2\SC(N3CCc4ccccc4C3)=NC2=O)cc1 | inactive: 14%
O=C1COc2ccc(C(=O)COC(=O)Cn3cnc4ccccc43)cc2N1 | inconclusive: -45%
O=C(c1ccccc1Sc1ccc([N+](=O)[O-])cc1)N1CCCCC1 | inconclusive: -35.4%
NC(=O)CC[C@@H]1NC(=O)[C@H](CO)NC(=O)c2cc([N+](=O)[O-])cc(I)c2NCCCC[C@@H](C(N)=O)NC(=O)[C@H](Cc2ccc(O)cc2)NC1=O | inactive: 65.7%
CN(C)c1ccc(C(=O)Nc2nc3c(s2)CCCC3)cc1 | inactive: -7.59%
O=C(c1cccc(NS(=O)(=O)c2ccc(F)c(F)c2)c1)N1CCN(Cc2ccccc2)CC1 | inconclusive: -32.8%
O=C(Nc1cccc(F)c1)c1cccnc1NCCc1ccccc1 | inactive: -3.81%
C=CCn1c(=O)c(C(=O)Nc2cccnc2)c(O)c2ccccc21 | inconclusive: -32.8%
Cc1ccc(C)n1-c1ccc(C(=O)NCC2CCCO2)cc1 (stereo not drawn) | inactive: 5.62%
CCOC(=O)c1ccccc1-c1csc(NS(=O)(=O)c2ccc(Cl)cc2)n1 | inconclusive: -42.4%
Cc1cc(C)n(-c2nc3ccccc3c(=O)n2OCC(N)=O)n1 | inconclusive: -40.3%
COc1ccc(CNC(=O)C2CCC(CNS(=O)(=O)c3cccc4nsnc34)CC2)cc1 (stereo not drawn) | inconclusive: -53%
c1ccc(COc2cccc(CNn3cnnc3)c2)cc1 | inconclusive: -43.5%
CC(C)NC(=O)CN1CCN(c2ncccn2)CC1 | inactive: -26.4%
Cc1cc(C)n2nc(SCn3nnc4ccccc4c3=O)nc2n1 | inconclusive: -45.2%
COCCn1c(SCC(=O)Nc2nnc(C)s2)nnc1-c1ccncc1 | inconclusive: -46.5%
O=C(CNC(=O)c1ccc(S(=O)(=O)N2CCCC2)cc1)N/N=C/c1ccc(Cl)cc1 | inactive: -5.74%

SMILES | activity change (PNC), negative = inhibition
CCOc1ccc(CN(C)C(C)C(=O)Nc2ccc([N+](=O)[O-])cc2Cl)cc1OC (stereo not drawn) | inconclusive: -52.7%
COc1cc2c(cc1NC(=O)CSc1ccccc1)oc1ccccc12 | inconclusive: -35%
O=C(Oc1ccccc1)c1ccc2nsnc2c1 | inactive: 5.21%
CCN1C(=O)N/C(=C/c2ccc(Sc3ccc(C)cc3)o2)C1=O | inconclusive: -43.9%
Cc1c(NC(=O)/C(C#N)=C/c2cccs2)c(=O)n(-c2ccccc2)n1C | inconclusive: -50.7%
Cc1cc(C)c2c(N)c(C(=O)NN3CC(=O)N(c4ccccc4F)CC3=O)sc2n1 | inconclusive: -36.9%
COc1cccc(NC(=O)CSc2nc3ccccc3c3nc4ccccc4n23)c1 | inconclusive: -31.7%
COCCCNC(=S)N1CCN(S(C)(=O)=O)CC1 | inconclusive: -56.8%
COc1cccc(NC(=S)N(Cc2ccco2)C(C)c2ccco2)c1 (stereo not drawn) | inconclusive: -31.5%
Cc1cccc(-n2nnnc2SCC(=O)NCCN2C(=O)CSC2=O)c1 | inactive: 26.7%
Cc1ccc(Cn2cccc2/C=C2/C(=N)N3C=CSC3=NC2=O)cc1 | inactive: 48.3%
COc1ccc(Sc2ccccc2CN(C)C)cc1OC | inactive: 14.9%
O=C(CN1CCCCC1)Nc1ccc(S(=O)(=O)NC2CCCCC2)cc1 | inconclusive: -40%
CCOCCN(C=O)c1cccc(OC)c1 | inconclusive: -36.2%
Cc1ccccc1-n1nnnc1SCCCC(=O)c1ccc(F)cc1 | inconclusive: -56.4%
CC(C)C(=O)Nc1ccc2c(c1)nc1n2CCSC1 | inconclusive: -50.3%
O=C(CN(Cc1cccs1)S(=O)(=O)c1ccc(S(=O)(=O)N2CCCCC2)cc1)Nc1ccccc1 | inactive: 18.9%
Cc1ccc(SCCC(=O)N/N=C/c2ccccc2O)cc1 | inactive: 4.68%
CC(C)(C)c1ccc(C(=O)N2CCC(=O)N(C(COCc3ccccc3)Cc3ccccc3)CC2)cc1 (stereo not drawn) | active: -115%
Cc1cc(=O)c2cc(Cl)ccc2[nH]1 | inactive: -27.7%
COc1ccccc1C(O)P(=O)(OC(C)C)c1ccc(N(C)C)cc1 (stereo not drawn) | inconclusive: -46.9%
C=CCn1c(N)c(C(=O)Nc2ccccc2)c2nc3ccccc3nc21 | inconclusive: -58.2%

Of the compounds above, these have a COOH group.
SMILES | activity change (PNC), negative = inhibition
O=C(O)CCC(=O)N1CCc2cc(S(=O)(=O)N3CCC(Cc4ccccc4)CC3)ccc21 | inactive: 11%
Cc1cc(C(F)(F)F)nc(SCc2ccc(C(=O)O)o2)n1 | inconclusive: -64.4%
